Assay [1] deals with myc-tagged full-length plakophilin-3 ΔSL (human) (UniProt Q9Y446). The assay can be described thus: co-IP; anti c-myc immunoprecipitation from lysates of A431 cells stably expressing myc-tagged plakophilin-3 constructs; immunoblot with anti stratifin (endogenous stratifin).
Assay [2] has as its target plakophilin-3 HD ΔSL, Gal4 DNA binding domain fusion (human) (UniProt Q9Y446). Put plainly: two-hybrid; Matchmaker 3 (Clontech), baits in pGBKT7, preys in pGADT7, Y2H Gold yeast; growth on media lacking leucine, tryptophan and histidine.
Assay [3] has the same target. The description is as above. This is another data set of the same source.

Protein sequences, listed by entry. Tags and fused reporters are not part of them. Lines headed by an entry give the natural chain unless they say otherwise; changes in a name come on top.
UniProt Q9Y446: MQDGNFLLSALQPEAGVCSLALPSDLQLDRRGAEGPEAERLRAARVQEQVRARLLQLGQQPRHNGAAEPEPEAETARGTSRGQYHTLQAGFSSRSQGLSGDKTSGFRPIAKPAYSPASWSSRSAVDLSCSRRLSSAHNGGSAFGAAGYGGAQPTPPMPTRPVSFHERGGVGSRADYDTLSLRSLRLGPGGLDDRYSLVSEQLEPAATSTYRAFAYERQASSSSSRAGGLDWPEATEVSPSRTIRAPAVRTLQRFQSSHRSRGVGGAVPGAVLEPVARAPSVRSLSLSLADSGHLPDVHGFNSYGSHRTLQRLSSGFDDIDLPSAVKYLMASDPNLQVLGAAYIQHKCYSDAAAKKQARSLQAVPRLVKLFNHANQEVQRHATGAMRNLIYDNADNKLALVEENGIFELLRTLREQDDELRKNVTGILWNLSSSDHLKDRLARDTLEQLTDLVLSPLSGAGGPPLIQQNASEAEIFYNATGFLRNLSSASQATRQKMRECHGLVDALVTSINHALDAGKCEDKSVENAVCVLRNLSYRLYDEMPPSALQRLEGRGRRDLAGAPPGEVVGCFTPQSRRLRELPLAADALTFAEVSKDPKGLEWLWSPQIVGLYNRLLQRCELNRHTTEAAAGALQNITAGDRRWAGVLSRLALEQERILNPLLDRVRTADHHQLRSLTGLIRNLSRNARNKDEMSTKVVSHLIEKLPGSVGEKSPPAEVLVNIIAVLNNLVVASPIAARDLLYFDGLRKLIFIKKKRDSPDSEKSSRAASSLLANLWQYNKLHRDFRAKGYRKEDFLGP
UniProt P31947: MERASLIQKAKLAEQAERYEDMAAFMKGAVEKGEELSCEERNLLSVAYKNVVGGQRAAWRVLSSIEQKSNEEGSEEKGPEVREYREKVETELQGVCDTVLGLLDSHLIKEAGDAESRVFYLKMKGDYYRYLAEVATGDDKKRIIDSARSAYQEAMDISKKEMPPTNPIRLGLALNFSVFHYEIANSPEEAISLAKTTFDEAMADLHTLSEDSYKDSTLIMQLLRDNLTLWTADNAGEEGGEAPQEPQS

Like-named read-outs stand apart in the source and are kept apart here. These are yes or no findings as the source states them, for the method shown. For part of these data: Binding calls can cover weak binding; strength is not graded here. For part of these data: Where a sequence is shown, tags or fusion partners need not be part of it. For part of these data: Binding seen in cells or lysates may run through a third protein.

Regarding “stratifin (14-3-3 σ) (endogenous) (from UniProt P31947 1-248)”, in assay [1], the binding result is listed as “no binding”.

As to “full-length stratifin fused to the Gal4 activation domain (from UniProt P31947 1-248)”, the binding result in assay [2] is “no binding”.

B1: desmoplakin (amino acids 1-584) fused to the Gal4 activation domain (domain or fragment, UniProt P15924 1-584)
chain: MSCNGGSHPRINTLGRMIRAESGPDLRYEVTSGGGGTSRMYYSRRGVITDQNSDGYCQTGTMSRHQNQNTIQELLQNCSDCLMRAELIVQPELKYGDGIQLTRSRELDECFAQANDQMEILDSLIREMRQMGQPCDAYQKRLLQLQEQMRALYKAISVPRVRRASSKGGGGYTCQSGSGWDEFTKHVTSECLGWMRQQRAEMDMVAWGVDLASVEQHINSHRGIHNSIGDYRWQLDKIKADLREKSAIYQLEEEYENLLKASFERMDHLRQLQNIIQATSREIMWINDCEEEELLYDWSDKNTNIAQKQEAFSIRMSQLEVKEKELNKLKQESDQLVLNQHPASDKIEAYMDTLQTQWSWILQITKCIDVHLKENAAYFQFFEEAQSTEAYLKGLQDSIRKKYPCDKNMPLQHLLEQIKELEKEREKILEYKRQVQNLVNKSKKIVQLKPRNPDYRSNKPIILRALCDYKQDQKIVHKGDECILKDNNERSKWYVTGPGGVDMLVPSVGLIIPPPNPLAVDLSCKIEQYYEAILALWNQLYINMKSLVSWHYCMIDIEKIRAMTIAKLKTMRQEDYMKTIADLE
Regarding B1, in assay [3], the binding entry is given as “binds”.

Values taken from article PMC3790753.
